Out of some 360,000 compounds screened, about 9,100 (2.5%) were called active. Inconclusive means that the source gave no clear call. Such entries were picked first, then a sample of the others. Cut-off read from the data, not from the text of the source: active = max response below about -50%; inconclusive = no clear call, values can overlap the other calls; inactive = above that.
target: D(3) dopamine receptor (Homo sapiens) (UniProt P35462); assay: qHTS of D3 Dopamine Receptor Antagonist: qHTS; conditions: D3R cells, DiscoveRx beta-arrestin luminescence, antagonist mode; active compounds read low
Procedure, shortened: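 Cells plated overnight at 1500 cells/well, then exposed to library compounds with dopamine controls for 90 minutes at 37 degrees C. DiscoveRx reagent added for 30–60 minutes at room temperature; luminescence read, quantitative HTS format.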
% is set by controls: 0 for no effect and ±100 for the full control effect.

Sequences of proteins named here, by UniProt entry; tags and fusion partners are left off.
UniProt P35462, whole entry, looked up: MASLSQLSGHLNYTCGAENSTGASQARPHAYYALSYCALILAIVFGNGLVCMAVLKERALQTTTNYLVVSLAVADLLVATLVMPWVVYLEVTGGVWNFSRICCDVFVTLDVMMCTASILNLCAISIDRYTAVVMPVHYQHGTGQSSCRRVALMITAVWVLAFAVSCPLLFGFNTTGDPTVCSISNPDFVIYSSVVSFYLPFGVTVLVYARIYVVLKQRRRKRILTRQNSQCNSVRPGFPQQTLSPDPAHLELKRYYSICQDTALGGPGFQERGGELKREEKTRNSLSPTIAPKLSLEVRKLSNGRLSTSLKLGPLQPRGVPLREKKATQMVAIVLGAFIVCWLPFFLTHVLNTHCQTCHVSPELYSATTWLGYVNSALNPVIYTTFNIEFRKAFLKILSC

SMILES	max response, negative = inhibition
Cc1ccccc1CN1CCN(Cc2ccccc2)CC1	inconclusive: -37.7%
CC(C)CCn1c(=O)c(C(=O)NCc2ccc3c(c2)OCO3)c(O)c2ccccc21	inactive: -4.79%
COc1ccc(CC(=O)N2CCN(C)CC2)cc1OC	active: -71.1%
CCCCCN1C(=O)c2cc(OC)ccc2[C@@]2(C(=O)OCC)Cc3cc(Cl)ccc3[C@@H]12	inconclusive: -31.5%
COc1ccc(C(=O)CC(c2ccc3c(c2)OCO3)c2c(O)c3ccccc3oc2=O)cc1OC (stereo not given)	inconclusive: -33.1%
COc1ccc(CC(=O)C2C(=O)N(C)c3ccccc32)cc1OC (stereo not given)	inconclusive: -39%
c1cc2c(cc1CCNC1CCCCCC1)OCO2	inconclusive: -44.3%
CCCCn1c(O)c(C(CC)=NCCN2CCOCC2)c(=O)[nH]c1=O	inconclusive: -33.2%
C=CCn1c(O)c(C=Nc2ccc(F)cc2)c(=O)[nH]c1=O	inactive: -10.7%
c1ccc(CN2CCNCC2)nc1	inactive: -29.3%
Cc1cccc(C)c1NC(=O)CN(C)CC(=O)Nc1ccc(C#N)c(Cl)c1	inactive: 0.946%
Cc1cc2ccccn2c1C(C[N+](=O)[O-])c1c(F)cccc1Cl (stereo not given)	active: -52.4%
COc1cc2c3c(c1OC)-c1cc(O)ccc1CC3NCC2 (stereo not given)	inconclusive: -40.4%
CCc1ccc(CN2CCN(Cc3ccc(SC)cc3)CC2)cc1	inconclusive: -35.1%
COc1ccc(C(=O)C2CCCN(C3CSCCSC3)C2)c(OC)c1 (stereo not given)	inconclusive: -33.4%
CN1CCc2nc(SCc3cccc(Br)c3)c(C#N)cc2C1	inconclusive: -33.2%
Nc1cccc2c1Cc1cc([N+](=O)[O-])ccc1-2	inactive: -2.69%
O=C(O)c1cccc2c1NC(C(=O)O)C1CC(Sc3ccccc3[N+](=O)[O-])C(Cl)C21 (stereo not given)	inconclusive: -35.3%
Clc1ccc(C(OCCN2CCCCC2)c2ccccc2)cc1 (stereo not given)	inactive: -17.8%
CCN1CCN(c2cc(N3CCCC3)c([N+](=O)[O-])cc2F)CC1	inconclusive: -36.8%
NCCc1c[nH]c2ccccc12	inconclusive: -43.5%
CN1CCC(c2c[nH]c3ccccc23)C1 (stereo not given)	active: -100%
CC(NCc1ccc(Cl)c(Cl)c1)C(O)c1ccccc1 (stereo not given)	active: -65%

Structural class: the entries above containing a Cl atom (6)
SMILES	max response, negative = inhibition
CCCCCN1C(=O)c2cc(OC)ccc2[C@@]2(C(=O)OCC)Cc3cc(Cl)ccc3[C@@H]12	inconclusive: -31.5%
Cc1cccc(C)c1NC(=O)CN(C)CC(=O)Nc1ccc(C#N)c(Cl)c1	inactive: 0.946%
Cc1cc2ccccn2c1C(C[N+](=O)[O-])c1c(F)cccc1Cl (stereo not given)	active: -52.4%
O=C(O)c1cccc2c1NC(C(=O)O)C1CC(Sc3ccccc3[N+](=O)[O-])C(Cl)C21 (stereo not given)	inconclusive: -35.3%
Clc1ccc(C(OCCN2CCCCC2)c2ccccc2)cc1 (stereo not given)	inactive: -17.8%
CC(NCc1ccc(Cl)c(Cl)c1)C(O)c1ccccc1 (stereo not given)	active: -65%

Remaining list, next part:

SMILES	max response, negative = inhibition
O=P(Nc1ccccc1)(Oc1ccccc1)Oc1ccccc1	inactive: 92%
Cc1ccc(C(=O)C2CN(C)CC2C(=O)c2ccc(C)cc2)cc1 (stereo not given)	inconclusive: -42.5%
CC1CN(c2cc([N+](=O)[O-])ccc2Cl)CC(C)N1 (stereo not given)	inconclusive: -40.3%
COC(=O)C1=C(N)Oc2c(c(=O)oc3ccccc23)C1c1cccnc1 (stereo not given)	inactive: 21.5%
CCc1ccc(OCC(=O)N2CCN(Cc3ccc4c(c3)OCO4)CC2)cc1	inconclusive: -34.3%
O=C(c1cc(F)ccc1F)C1CCCN(Cc2cc(Cl)ccc2O)C1 (stereo not given)	inconclusive: -38.9%
COc1ccc(Oc2cc(NC(=O)c3nn(C)cc3[N+](=O)[O-])cc([N+](=O)[O-])c2)cc1	inconclusive: -30.3%
O=C(CN1CC(c2ccccc2)CC1=O)NCc1ccc(F)cc1 (stereo not given)	inconclusive: -31.2%
CN1CC(C(=O)c2ccc(F)cc2)C(c2ccc(F)cc2)C1 (stereo not given)	active: -129%
COC(=O)C1=C(c2ccc(Cl)c(C(F)(F)F)c2)C[C@@H]2CC[C@H]1N2C(=O)NCCCOC(C)C	inconclusive: -49.1%
CN1CCc2c([nH]c3ccccc23)C1	inconclusive: -43.6%
CCOC(=O)[C@]12Cc3cc(OC)ccc3[C@H]1N(C1CCCCC1)C(=O)c1cc(OC)ccc12	inconclusive: -36%
CCCOc1ccccc1C1SCC(=O)Nc2c1c(=O)[nH]n2C(C)CCC (stereo not given)	inconclusive: -50%
C=CCn1c(O)c(/C=C/C=Nc2ccccc2)c(=O)[nH]c1=O	inactive: 30.9%
O=C(O)C1CSC(c2cccnc2)N1 (stereo not given)	active: -75.1%
CN1CC[C@@]2(C)c3cc(O)ccc3N(C)[C@@H]12	inconclusive: -33.1%
CCCCCCCSc1cc(OC)c(CCN(C)C)cc1OC	active: -65.7%
c1ccc(C2c3ccccc3-n3nncc3CN2CC2CCCCC2)cc1 (stereo not given)	inconclusive: -40.4%
Cc1cc(N2CCCCC2)ccc1C=C1C(=O)N(C)C(=S)N(C)C1=O	inactive: 14%
COc1ccccc1CN1CCN(C(=O)COc2ccccc2)CC1	active: -81.5%
Cc1cc(CN(C)C)c(OC(=O)N(C)C)cc1C	inconclusive: -41.7%
